Some of the results follow.
What was measured:
Experiment in all cases: log2 fold change, soluble protein after heating vs DMSO (PISA); higher = thermal stabilisation; K562 lysate, 10 uM; active = over 0.2 and 3.5 SD of the protein, either way, in both replicates (recomputed)
[1] = compound: C1=CC=C(C=C1)[C@H](COC2=CC3=C(C=C2)NC(=O)N3)NC(=O)C4=CC=CN(C4=O)CC5=CC(=C(C=C5)F)F
How it was run: (§1)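 K562 pellets were dounce-homogenised in PBS pH 7.4 containing 1 mM MgCl2, and the crude extract, at 1 mg/mL protein, was exposed to 10 μM compound for 30 min. Aliquots were heated for 3 min across 48°C-58°C, pooled, brought to 0.5% NP-40 at 4°C and spun at 21,000xg for 90 min, with the supernatant taken as soluble protein. TMTpro 16plex LC-MS/MS with equalised channel sums quantified that protein. Values are log-two fold changes in thermal stability relative to solvent controls, taken from duplicates.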

Protein sequences, listed by entry. Tags and fused reporters are not part of them. Lines headed by an entry give the natural chain unless they say otherwise; changes in a name come on top.
UniProt Q8IVM0: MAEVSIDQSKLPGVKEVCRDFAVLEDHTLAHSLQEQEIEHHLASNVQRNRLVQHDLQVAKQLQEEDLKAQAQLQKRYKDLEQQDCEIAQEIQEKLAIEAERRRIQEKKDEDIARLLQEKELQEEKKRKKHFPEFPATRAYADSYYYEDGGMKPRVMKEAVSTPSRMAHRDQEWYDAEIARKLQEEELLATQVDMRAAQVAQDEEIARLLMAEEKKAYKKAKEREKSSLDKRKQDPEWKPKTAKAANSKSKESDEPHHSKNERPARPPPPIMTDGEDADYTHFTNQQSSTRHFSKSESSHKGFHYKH
UniProt Q3V6T2: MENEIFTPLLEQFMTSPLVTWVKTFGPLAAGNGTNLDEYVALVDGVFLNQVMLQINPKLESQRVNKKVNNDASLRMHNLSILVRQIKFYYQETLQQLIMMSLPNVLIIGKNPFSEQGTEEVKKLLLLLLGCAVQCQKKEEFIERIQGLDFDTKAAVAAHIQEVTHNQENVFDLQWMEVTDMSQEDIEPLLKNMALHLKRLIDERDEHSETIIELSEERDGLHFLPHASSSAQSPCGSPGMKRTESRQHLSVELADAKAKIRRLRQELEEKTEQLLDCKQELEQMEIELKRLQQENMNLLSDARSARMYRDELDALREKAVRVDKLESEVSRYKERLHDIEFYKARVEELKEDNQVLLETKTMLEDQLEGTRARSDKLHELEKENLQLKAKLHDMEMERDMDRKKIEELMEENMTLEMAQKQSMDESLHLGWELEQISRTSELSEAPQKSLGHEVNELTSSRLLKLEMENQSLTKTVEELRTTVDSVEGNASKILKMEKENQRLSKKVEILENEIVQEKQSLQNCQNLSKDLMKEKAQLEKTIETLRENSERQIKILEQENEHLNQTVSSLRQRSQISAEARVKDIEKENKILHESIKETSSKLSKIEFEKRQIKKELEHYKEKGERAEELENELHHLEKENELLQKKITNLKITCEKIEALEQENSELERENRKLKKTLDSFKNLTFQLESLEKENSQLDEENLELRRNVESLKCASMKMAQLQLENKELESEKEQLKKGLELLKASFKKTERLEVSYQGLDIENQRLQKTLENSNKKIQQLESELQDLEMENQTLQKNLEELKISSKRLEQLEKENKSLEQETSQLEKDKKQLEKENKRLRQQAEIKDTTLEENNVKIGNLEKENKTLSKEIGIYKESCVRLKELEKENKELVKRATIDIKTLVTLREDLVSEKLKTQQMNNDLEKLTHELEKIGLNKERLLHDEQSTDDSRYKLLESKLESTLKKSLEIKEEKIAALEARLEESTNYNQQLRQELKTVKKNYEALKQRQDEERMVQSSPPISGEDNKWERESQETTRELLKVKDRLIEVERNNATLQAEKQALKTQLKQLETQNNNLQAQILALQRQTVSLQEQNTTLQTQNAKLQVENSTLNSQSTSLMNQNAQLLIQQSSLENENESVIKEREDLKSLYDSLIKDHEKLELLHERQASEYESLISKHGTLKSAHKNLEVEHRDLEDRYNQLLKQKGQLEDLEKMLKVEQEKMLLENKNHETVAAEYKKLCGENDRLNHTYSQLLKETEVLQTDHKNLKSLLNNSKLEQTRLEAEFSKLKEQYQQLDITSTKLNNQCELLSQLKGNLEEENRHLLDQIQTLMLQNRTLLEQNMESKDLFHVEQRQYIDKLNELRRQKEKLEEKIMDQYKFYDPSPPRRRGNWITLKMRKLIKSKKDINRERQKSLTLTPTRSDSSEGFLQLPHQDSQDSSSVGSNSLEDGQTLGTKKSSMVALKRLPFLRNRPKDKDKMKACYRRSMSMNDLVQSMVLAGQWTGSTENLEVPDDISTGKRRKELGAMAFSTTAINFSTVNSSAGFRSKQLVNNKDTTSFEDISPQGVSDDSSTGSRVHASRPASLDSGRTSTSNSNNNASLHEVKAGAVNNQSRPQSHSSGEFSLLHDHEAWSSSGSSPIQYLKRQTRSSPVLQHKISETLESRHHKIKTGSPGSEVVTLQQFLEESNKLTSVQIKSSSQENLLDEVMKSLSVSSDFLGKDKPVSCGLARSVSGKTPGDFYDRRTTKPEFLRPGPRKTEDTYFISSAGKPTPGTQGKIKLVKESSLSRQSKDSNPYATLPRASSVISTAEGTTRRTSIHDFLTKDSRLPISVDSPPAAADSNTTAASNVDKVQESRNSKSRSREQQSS
UniProt Q9ULG6: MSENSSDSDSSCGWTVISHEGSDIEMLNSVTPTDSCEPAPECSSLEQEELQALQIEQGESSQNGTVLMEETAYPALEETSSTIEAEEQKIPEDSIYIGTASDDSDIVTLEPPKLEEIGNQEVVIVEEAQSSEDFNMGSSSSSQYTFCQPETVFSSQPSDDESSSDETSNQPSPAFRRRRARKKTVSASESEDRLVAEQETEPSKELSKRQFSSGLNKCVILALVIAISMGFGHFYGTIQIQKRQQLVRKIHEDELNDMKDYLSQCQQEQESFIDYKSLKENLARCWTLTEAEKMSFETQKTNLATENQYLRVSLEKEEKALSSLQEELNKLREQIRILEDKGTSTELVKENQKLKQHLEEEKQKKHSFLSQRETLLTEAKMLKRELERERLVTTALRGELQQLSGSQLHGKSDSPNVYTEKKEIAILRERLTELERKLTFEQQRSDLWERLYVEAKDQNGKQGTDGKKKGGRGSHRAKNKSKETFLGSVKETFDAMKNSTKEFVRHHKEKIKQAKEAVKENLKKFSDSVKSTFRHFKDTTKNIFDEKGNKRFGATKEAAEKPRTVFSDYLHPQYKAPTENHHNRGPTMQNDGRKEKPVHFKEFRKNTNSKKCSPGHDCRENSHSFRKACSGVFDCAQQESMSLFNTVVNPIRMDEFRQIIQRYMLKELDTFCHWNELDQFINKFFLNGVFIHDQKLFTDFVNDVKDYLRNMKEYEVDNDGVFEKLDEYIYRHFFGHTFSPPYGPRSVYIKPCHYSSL
UniProt Q9P219: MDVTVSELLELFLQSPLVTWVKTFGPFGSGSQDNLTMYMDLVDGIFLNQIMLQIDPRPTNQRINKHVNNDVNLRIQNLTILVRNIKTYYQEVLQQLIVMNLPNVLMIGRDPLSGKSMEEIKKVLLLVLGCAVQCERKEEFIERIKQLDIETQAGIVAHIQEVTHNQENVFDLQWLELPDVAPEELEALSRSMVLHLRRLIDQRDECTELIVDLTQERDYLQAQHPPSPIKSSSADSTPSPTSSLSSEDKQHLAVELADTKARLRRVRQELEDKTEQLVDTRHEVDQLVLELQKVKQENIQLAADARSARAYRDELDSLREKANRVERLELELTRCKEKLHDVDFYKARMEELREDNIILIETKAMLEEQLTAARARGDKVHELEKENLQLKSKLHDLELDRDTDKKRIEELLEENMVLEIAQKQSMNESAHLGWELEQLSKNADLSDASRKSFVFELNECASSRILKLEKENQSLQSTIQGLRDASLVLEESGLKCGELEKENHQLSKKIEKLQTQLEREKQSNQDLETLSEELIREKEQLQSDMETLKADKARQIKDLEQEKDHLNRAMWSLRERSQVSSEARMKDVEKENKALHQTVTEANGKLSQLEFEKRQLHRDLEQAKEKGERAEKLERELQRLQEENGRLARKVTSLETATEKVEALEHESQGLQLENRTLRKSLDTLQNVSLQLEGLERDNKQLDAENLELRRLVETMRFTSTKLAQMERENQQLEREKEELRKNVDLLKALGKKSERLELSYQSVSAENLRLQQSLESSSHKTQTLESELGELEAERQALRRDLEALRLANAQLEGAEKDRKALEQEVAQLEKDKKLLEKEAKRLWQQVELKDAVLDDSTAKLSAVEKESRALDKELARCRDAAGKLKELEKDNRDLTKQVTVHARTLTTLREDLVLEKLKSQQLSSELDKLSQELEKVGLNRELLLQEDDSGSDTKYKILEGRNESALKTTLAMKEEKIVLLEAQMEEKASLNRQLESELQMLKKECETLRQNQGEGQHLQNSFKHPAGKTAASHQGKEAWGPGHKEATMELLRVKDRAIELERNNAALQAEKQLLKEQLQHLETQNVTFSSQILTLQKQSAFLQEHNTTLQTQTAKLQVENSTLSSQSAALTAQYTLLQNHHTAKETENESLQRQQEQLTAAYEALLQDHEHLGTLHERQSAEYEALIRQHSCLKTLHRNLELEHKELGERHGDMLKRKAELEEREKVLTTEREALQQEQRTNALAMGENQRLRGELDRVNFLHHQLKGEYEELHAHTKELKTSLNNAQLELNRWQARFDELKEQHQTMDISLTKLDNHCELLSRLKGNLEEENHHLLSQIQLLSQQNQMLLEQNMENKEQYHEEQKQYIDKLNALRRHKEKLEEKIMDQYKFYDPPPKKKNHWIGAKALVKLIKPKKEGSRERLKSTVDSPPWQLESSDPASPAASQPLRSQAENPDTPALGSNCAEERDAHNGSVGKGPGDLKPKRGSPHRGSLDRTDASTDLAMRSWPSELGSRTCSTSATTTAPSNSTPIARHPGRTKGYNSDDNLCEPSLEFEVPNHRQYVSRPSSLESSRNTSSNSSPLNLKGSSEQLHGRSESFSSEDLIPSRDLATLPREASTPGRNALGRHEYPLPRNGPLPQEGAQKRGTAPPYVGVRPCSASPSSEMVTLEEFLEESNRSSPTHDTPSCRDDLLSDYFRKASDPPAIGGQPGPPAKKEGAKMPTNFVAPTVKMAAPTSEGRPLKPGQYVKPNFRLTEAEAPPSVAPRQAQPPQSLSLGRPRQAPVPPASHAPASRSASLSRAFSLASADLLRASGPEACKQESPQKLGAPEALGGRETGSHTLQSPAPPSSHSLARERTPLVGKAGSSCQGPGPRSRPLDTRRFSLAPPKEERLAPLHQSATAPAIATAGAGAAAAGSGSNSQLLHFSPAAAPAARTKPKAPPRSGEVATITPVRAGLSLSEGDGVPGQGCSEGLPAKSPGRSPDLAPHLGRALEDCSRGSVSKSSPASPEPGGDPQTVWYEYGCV
UniProt O00421: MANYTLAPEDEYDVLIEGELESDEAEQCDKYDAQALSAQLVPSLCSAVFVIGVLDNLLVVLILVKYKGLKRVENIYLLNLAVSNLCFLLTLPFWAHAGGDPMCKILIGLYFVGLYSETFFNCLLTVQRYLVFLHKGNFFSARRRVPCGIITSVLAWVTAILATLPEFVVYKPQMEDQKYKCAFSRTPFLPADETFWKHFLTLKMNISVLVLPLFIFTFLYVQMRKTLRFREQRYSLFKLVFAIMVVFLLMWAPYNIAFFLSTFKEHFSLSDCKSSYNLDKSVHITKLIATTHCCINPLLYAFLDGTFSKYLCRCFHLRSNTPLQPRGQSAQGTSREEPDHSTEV
UniProt P24863: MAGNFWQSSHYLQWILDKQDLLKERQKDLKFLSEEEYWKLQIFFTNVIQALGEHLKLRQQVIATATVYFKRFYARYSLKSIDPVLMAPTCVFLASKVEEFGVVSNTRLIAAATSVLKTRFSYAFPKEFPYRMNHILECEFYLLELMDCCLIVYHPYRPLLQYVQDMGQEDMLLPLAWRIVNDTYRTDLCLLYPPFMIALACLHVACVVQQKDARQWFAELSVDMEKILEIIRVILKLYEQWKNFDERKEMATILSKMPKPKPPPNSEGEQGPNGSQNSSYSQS
UniProt P20810: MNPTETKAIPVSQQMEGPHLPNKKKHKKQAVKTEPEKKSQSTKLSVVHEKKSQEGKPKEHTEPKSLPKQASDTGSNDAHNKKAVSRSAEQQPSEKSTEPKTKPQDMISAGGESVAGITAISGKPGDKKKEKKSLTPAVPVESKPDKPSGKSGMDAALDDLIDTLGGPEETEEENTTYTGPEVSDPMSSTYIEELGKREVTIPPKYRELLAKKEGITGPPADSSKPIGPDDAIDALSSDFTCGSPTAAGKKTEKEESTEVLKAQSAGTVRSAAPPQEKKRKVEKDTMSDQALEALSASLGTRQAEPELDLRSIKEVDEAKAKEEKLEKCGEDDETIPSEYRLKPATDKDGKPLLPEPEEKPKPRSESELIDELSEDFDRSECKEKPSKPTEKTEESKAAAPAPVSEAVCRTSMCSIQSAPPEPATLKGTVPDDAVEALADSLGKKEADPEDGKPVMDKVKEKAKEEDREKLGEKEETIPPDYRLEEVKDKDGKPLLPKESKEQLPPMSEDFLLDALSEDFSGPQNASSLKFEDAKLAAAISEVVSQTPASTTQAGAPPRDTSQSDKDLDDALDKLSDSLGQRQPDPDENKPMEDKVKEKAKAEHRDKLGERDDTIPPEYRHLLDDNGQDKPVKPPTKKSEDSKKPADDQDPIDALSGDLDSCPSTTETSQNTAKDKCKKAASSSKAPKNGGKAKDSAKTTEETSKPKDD

[2] = compound: CC1=C(SC2=C1C(=N[C@H](C3=NN=C(N32)C)CC(=O)N)C4=CC=C(C=C4)Cl)C
How it was run: as §1

[3] = compound: CC1=C2C(=CC=C1)N=C(N(C2=O)C3=CC=CC=C3C)CN4C=NC5=C(N=CN=C54)N
How it was run: as §1

[4] = compound: Cc1sc2c(c1C)C(c1ccc(Cl)cc1)=N[C@@H](CC(=O)OC(C)(C)C)c1nnc(C)n1-2
How it was run: as §1

[5] = compound: c1ccc([C@@H]2C[C@H]2NC2CCNCC2)cc1
How it was run: as §1

Measured: log2 fold change

CCDC50 isoform 2 (UniProt Q8IVM0)
inactive: [1] 0.004 | [2] 0.043 | [3] -0.02 | [4] 0.008 | [5] 0.008

CCDC88A (UniProt Q3V6T2)
inactive: [1] 0.01 | [2] 0.037 | [3] 0.006 | [4] -0.005 | [5] 0

CCPG1 isoform 5 (UniProt Q9ULG6)
inactive: [1] -0.069 | [2] -0.118 | [3] 0.046 | [4] -0.082 | [5] -0.026

CCDC130 (UniProt P13994)
inactive: [1] 0.01 | [2] 0.038

CCDC88C (UniProt Q9P219)
inactive: [1] 0.051 | [2] 0.184 | [3] 0.008 | [4] 0.153 | [5] -0.019

2 records picked at random from those above:
CCDC88A (UniProt Q3V6T2)
inactive: [1] 0.01 | [2] 0.037 | [3] 0.006 | [4] -0.005 | [5] 0

CCDC88C (UniProt Q9P219)
inactive: [1] 0.051 | [2] 0.184 | [3] 0.008 | [4] 0.153 | [5] -0.019

Next entries follow.

CCRL2 isoform 2 (UniProt O00421)
inactive: [1] -0.014 | [2] 0

CCNT1 (UniProt O60563)
inactive: [1] 0.001 | [2] 0.087 | [3] -0.077 | [4] -0.1 | [5] 0.028

CCNC (UniProt P24863)
inactive: [1] 0.045 | [2] -0.09 | [3] -0.035 | [4] -0.036 | [5] -0.129

CBL (UniProt P22681)
inactive: [1] 0.049 | [2] -0.014 | [3] -0.022 | [4] 0.031 | [5] 0.015

CAST isoform 6 (UniProt P20810)
inactive: [1] 0.012 | [2] -0.011 | [3] -0.023 | [4] -0.041 | [5] -0.048

— the supplement of paper PMC10849652
